# Data as given in PubChem BioAssay AID1259264 (Sanger Institute, 2017)
# Aim: 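Kinases needed for CL40 growth and those that boost anti-cancer drug killing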 (primary screen)
# System: CL40 human colorectal cancer cells
# Reagent: siRNA pool against human genes
# Treatment: DMSO, or an anchor drug: BYL719 at 1 µM, cetuximab at 5 µg/ml, or trametinib at 10 nM
# Read-out: 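Replicate-mean viability versus a non-targeting pool, robust z-score from control wells, and mean synergy with BYL719 1 µM, cetuximab 5 µg/ml or trametinib 10 nM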
# Scale: robust z-score, siRNA alone and viability, siRNA alone: higher = more viable cells; synergy score with BYL719: higher = stronger combined killing with BYL719; synergy score with cetuximab: higher = stronger combined killing with cetuximab; synergy score with trametinib: higher = stronger combined killing with trametinib
# Hit rule: 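a gene counts as essential when knock-down without drug gives a robust z-score below -3, meaning fewer cells; synergy scores play no part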
# Meaning of the calls: active = essential (lowers viability alone); inactive = not essential
# Shown is an unselected part of 794 deposited reagents. Over the whole deposit, 15 (1.9%) are marked active. 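Calls rest on knock-down alone at z-score below -3; synergy scores with the three drugs do not decide them.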 A number with no mark means an inactive call. No viability above 1 is reported: the scale is capped. Not given: the amount of reagent, the time to read-out.
gene,"robust z-score, siRNA alone","viability, siRNA alone (fraction of control)",synergy score with BYL719,synergy score with cetuximab,synergy score with trametinib
RSKR (ribosomal protein S6 kinase related),0.539,1,-0.0541,-0.0174,0.0248
EEF2K (eukaryotic elongation factor 2 kinase),0.539,1,-0.0728,0.0674,0.153
PANK2 (pantothenate kinase 2),0.539,1,-0.11,-0.0174,0.114
NEK8 (NIMA related kinase 8),0.539,1,-0.118,-0.0174,0.0633
PRKD2 (protein kinase D2),0.539,1,-0.0363,0.0693,0.0213
PIK3C2B,0.539,1,-0.0764,-0.0174,0.0133
ATR (ATR checkpoint kinase),0.539,1,-0.0786,0.0521,0.0132
ETNK2 (ethanolamine kinase 2),0.3,0.983,-0.103,-0.0343,0.115
COQ8B (coenzyme Q8B),0.539,1,-0.149,-0.0174,0.125
EFNA3 (ephrin A3),0.0601,0.966,-0.101,0.0202,-0.0143
TESK2 (testis associated actin remodelling kinase 2),-0.733,0.909,-0.203,-0.0564,-0.0356
AXL (AXL receptor tyrosine kinase),-0.112,0.953,-0.17,-0.0174,0.0101
RPS6KA6 (ribosomal protein S6 kinase A6),0.539,1,-0.129,0.0361,0.138
PRKG2 (protein kinase cGMP-dependent 2),0.216,0.977,-0.0271,0.0125,0.0651
CDK20 (cyclin dependent kinase 20),-0.147,0.951,-0.148,-0.0657,0.138
TRIB3 (tribbles pseudokinase 3),-1.47,0.856,-0.0656,-0.0154,-0.0369
PRKCSH (PRKCSH beta subunit of glucosidase II),0.539,1,-0.0344,0.0626,0.0916
TRIO (trio Rho guanine nucleotide exchange factor),0.336,0.985,-0.115,0.00299,0.0639
CDKN1A (cyclin dependent kinase inhibitor 1A),0.226,0.978,-0.175,-0.0395,0.0516
CDC73 (cell division cycle 73),-0.745,0.908,-0.0479,-0.107,-0.0389
ITPKB (inositol-trisphosphate 3-kinase B),-0.438,0.93,-0.146,-0.037,0.0676
MYO3B (myosin IIIB),0.539,1,-0.0312,-0.0174,0.098
MVK (mevalonate kinase),0.539,1,-0.146,-0.0174,0.0588
AK7 (adenylate kinase 7),-0.788,0.905,-0.0558,-0.105,-0.0512
CDK16 (cyclin dependent kinase 16),-0.00137,0.961,-0.164,-0.0555,0.132
BMP2K (BMP2 inducible kinase),0.539,1,-0.156,-0.0174,0.147
BMX (BMX non-receptor tyrosine kinase),0.0659,0.966,-0.112,-0.0508,0.0627
LTK (leukocyte receptor tyrosine kinase),0.539,1,-0.0401,-0.0174,-0.0798
SMAD4 (SMAD family member 4),0.539,1,-0.0184,0.00317,-0.00434
EFNA5 (ephrin A5),0.539,1,-0.156,-0.0174,0.115
DLG3 (discs large MAGUK scaffold protein 3),0.539,1,-0.0514,-0.0174,0.0695
STK24 (serine/threonine kinase 24),0.539,1,-0.156,-0.0174,0.145

As entered above.
Under “synergy score with BYL719”, PRKCSH (PRKCSH beta subunit of glucosidase II) is entered as -0.0344
ETNK2 (ethanolamine kinase 2), viability, siRNA alone (fraction of control): 0.983
Under “synergy score with cetuximab”, BMP2K (BMP2 inducible kinase) is entered as -0.0174

The listing continues.
gene,"robust z-score, siRNA alone","viability, siRNA alone (fraction of control)",synergy score with BYL719,synergy score with cetuximab,synergy score with trametinib
NEK7 (NIMA related kinase 7),0.539,1,-0.108,0.0333,0.0383
ERN2 (endoplasmic reticulum to nucleus signaling 2),0.539,1,-0.124,-0.0174,0.0513
CAMKK1 (calcium/calmodulin dependent protein kinase kinase 1),0.28,0.981,-0.128,-0.0357,0.0474
ALDH18A1 (aldehyde dehydrogenase 18 family member A1),0.539,1,-0.0974,-0.0174,0.0499
PMVK (phosphomevalonate kinase),-1.17,0.878,-0.143,-0.0296,0.0363
AKT2 (AKT serine/threonine kinase 2),0.539,1,-0.112,-0.0174,0.119
"PFKFB2 (6-phosphofructo-2-kinase/fructose-2,6-biphosphatase 2)",-0.704,0.911,-0.0793,-0.0857,0.0902
FN3K (fructosamine 3 kinase),-0.089,0.955,-0.0204,-0.0617,0.101
PRKCE (protein kinase C epsilon),0.539,1,0.00854,-0.0174,0.0896
CIT (citron rho-interacting serine/threonine kinase),-1.81,0.831,-0.109,-0.0901,0.0793
PHKA2 (phosphorylase kinase regulatory subunit alpha 2),-0.663,0.914,-0.114,-0.00797,0.0369
IDH2 (isocitrate dehydrogenase (NADP(+)) 2),0.18,0.974,-0.0533,-0.0427,0.0779
FBXW7 (F-box and WD repeat domain containing 7),0.539,1,-0.153,-0.0174,0.0943
PDK4 (pyruvate dehydrogenase kinase 4),0.539,1,-0.102,-0.0174,0.0545
TSSK4 (testis specific serine kinase 4),0.539,1,-0.156,-0.0174,0.124
EPHA8 (EPH receptor A8),0.4,0.99,-0.155,-0.0157,0.0171
ACVR1C (activin A receptor type 1C),0.539,1,-0.0794,-0.0174,0.188
PHKG1 (phosphorylase kinase catalytic subunit gamma 1),-0.13,0.952,-0.114,-0.0646,0.132
NEK5 (NIMA related kinase 5),0.468,0.995,-0.16,0.00775,0.0874
INSR (insulin receptor),0.482,0.996,0.0157,-0.0215,0.0397
WHR1 (winged helix repair factor 1),0.539,1,-0.156,0.00899,0.0532
TRPM6,0.539,1,-0.156,-0.0174,0.0279
AGK (acylglycerol kinase),-0.338,0.937,-0.121,-0.0792,0.129
SF3B1 (splicing factor 3b subunit 1),-7.67 (active),0.411,-0.0574,-0.0598,-0.0735
EPHB2 (EPH receptor B2),0.526,0.999,-0.113,0.0253,0.12
FLT1 (fms related receptor tyrosine kinase 1),0.539,1,-0.156,-0.0174,0.0616
CDK7 (cyclin dependent kinase 7),0.539,1,-0.0826,-0.0174,0.0743
"PKMYT1 (protein kinase, membrane associated tyrosine/threonine 1)",0.382,0.989,0.0296,-0.0109,0.155
BMPR2 (bone morphogenetic protein receptor type 2),0.453,0.994,-0.0957,-0.0235,0.102
MARK2 (microtubule affinity regulating kinase 2),-0.171,0.949,-0.04,0.0445,-0.04
FGFR1 (fibroblast growth factor receptor 1),0.539,1,-0.119,0.032,0.087
